# Experimental data as given in PubChem BioAssay AID1347426 (Functional Genomics Laboratory (NCATS/FGL), 2020).
# Screen size: about 31,000 sequences; about 1,400 (4.5%) were called active.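 Rule for the calls: active = median seed-adjusted z-score above 1 or below -1; inactive = the rest.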 This is one part of the list.
# Experiment: Novel Modifiers of Survival Motor Neuron (SMN) Protein: Gene Identification via Genome-wide siRNA Screen;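 note: luminescence tracks full-length SMN protein made from the SMN2 reporter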
# Conditions: HEK293T SMN2-luciferase reporter, siRNA knockdown, 72 h; actives lie on both sides
# Procedure, shortened: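 Luciferase signal, proportional to full-length SMN made from an SMN2 cDNA reporter in stable HEK293T cells, was read 72 h after siRNA reverse transfection. Values were expressed as MAD scores after non-targeting-control normalization and log10 conversion; seed analysis flagged off-targets.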
row,Sequence,median seed-adjusted z-score
1,GACUGACACGGAAUAGUGUTT against ZNF286A,inactive: 0.0368
2,GUGUAAUCAUUGUGGAAAATT against ZNF569,inactive: 0.425
3,CCUUGUUUCUAGCAGCUAATT against CCNT1,inactive: -0.72
4,CCGUCGGACUGAUUGCACUTT against 3-Mar,inactive: 0.069
5,GGGUGGAUCAAAUAAGUUUTT against SKAP1,inactive: -0.00637
6,GAACGACAAGCCUUACUGUTT against PXN,inactive: -0.69
7,CACGAGGAGUGGACAAUAUTT against UCK1,inactive: -0.599
8,GGAAUUGGUUUCAGUCAAATT against RCOR1,active: -1.13
9,GGAAGAAGGUGUUUGAGAATT against QTRT1,inactive: 0.0708
10,UCCACUGCCCAAUAAAUAUTT against PYDC1,active: -1.44
11,CAACAGGUAUAACUACAUATT against CNDP2,inactive: 0.43
12,CAAUUACGAGAAACCUUAUTT against ZNF322B,inactive: 0.0433
13,GAAACUAUAGACAAGUUAATT against BRD1,inactive: 0.0644
14,CAACCAAAUUGGAUAAGUATT against B4GALT5,inactive: 0.104
15,GUAGCUCCGAGGUCUGAUATT against SMARCA4,inactive: 0.223
16,GAGUGUACCUUUUCAUGAUTT against PTDSS1,inactive: -0.76
17,GCUUAAAGGAGGUUACAAATT against PRTFDC1,inactive: 0.493
18,GGAGGAUAUGAGACAAGAATT against KRT23,inactive: -0.0696
19,CCUUCUUGGUGGAAUCCCATT against NGB,inactive: 0
20,CCAGUGAUCUGUACAACUUTT against IRF1,inactive: 0.831
21,GAAGAUCUGUGGACCAAAATT against KLF6,inactive: -0.0398
22,CCAAUUCUGAGGACUCAGATT against MAP3K12,inactive: -0.6
23,AACAUUCUAUUACCAAGAATT against EDF1,inactive: 0.0783
24,GGAAAACGAGGAUACUUAATT against POLR1A,inactive: 0.0814
25,CUGCUGUAUUUAUGAGAAATT against PPP1R11,inactive: -0.498
26,CCUACGGACUGAACAUGAATT against NARS2,inactive: 0.505
27,GGUUUAAUUCAAGCACGAATT against GALNT7,inactive: -0.63

# Rewritten with tabs: entries from further up
row	Sequence	median seed-adjusted z-score
1	GACUGACACGGAAUAGUGUTT against ZNF286A	inactive: 0.0368
2	GUGUAAUCAUUGUGGAAAATT against ZNF569	inactive: 0.425

# Following part:

row,Sequence,median seed-adjusted z-score
1,CGCACACGUAGAGACCUUATT against PNN,active: 1.29
2,GCAUACGCAGGAUCCUGGATT against KRT34,inactive: 0.124
3,GGCUAUACCUUGACCAUAATT against LRRTM3,inactive: -0.0808
4,CCGGUGCUAUCACAUCUAUTT against DYRK2,inactive: 0
5,CAGUCAACAGUGUAUGUCATT against PAQR3,inactive: -0.0384
6,GCUUCCAGAACUUAAGUAATT against RAB9A,inactive: 0.247
7,GAUGAUUACAUAUCAGAGATT against ZNF630,inactive: -0.533
8,GCAUGCAUUUUGUAUGAGATT against NEK11,inactive: 0.181
9,CUAGAGCACUUGGACCUUUTT against TLR4,inactive: 0.113
10,GCAUCAAUUUCUGGACAAATT against PPP1R12B,inactive: 0.416
11,CAAGGGACCUCAACAAAUUTT against RGS18,inactive: -0.0369
12,GAGAUUCAUUGGAGACUAUTT against RASL11A,inactive: -0.294
13,AGACUAUGAUGAGGCCCUATT against POMGNT1,inactive: -0.0431
14,CAUCAUGCCUAGUCCAGCATT against SSBP2,inactive: 0
15,CAACCACUGUGAUCACAGUTT against C1R,inactive: -0.541
16,AGUUGGGAUUAAUACUUCATT against CCL7,inactive: 0.23
17,GAAAAGUCGUAGUGUCAUATT against DCTN5,inactive: 0.0112
18,GCAUAGCCGUGCUUCUCUATT against FBXO18,inactive: -0.417
19,CAACAUCUAUCGCUAUGAUTT against CCIN,inactive: 0.0472
20,GCGUUGACAGUGAUGCGUATT against SLC4A3,inactive: -0.7
21,CCCUCAAAAUAAUUCGAUUTT against TNFRSF1A,inactive: 0.00772
22,GCUCAUAGGUAAGAAUUGUTT against NUBP1,inactive: -0.0975
23,CCCUAUGAUUGUAACAAGATT against BUB1B,inactive: -0.579
24,CAUAGAUUUUGUACGUUUATT against ABCA13,inactive: 0.238
25,GGCACUUACUCAUUCAUUATT against GPR85,inactive: 0.0452
26,CCUUGCUUGUGAGAGCAGATT against NPAS1,inactive: -0.386
27,GGCUUAGAAAAUAACGUGATT against DGKB,inactive: 0.325
